Source: patent US20120302614A1, “METHOD FOR IMPROVING CEREBRAL CIRCULATION OR TREATING A CEREBRAL BLOOD FLOW DISORDER” (OSAKA UNIVERSITY, priority 2007, published 2012)

System: Aβ injection model (Aβ 1-40 administered intracerebroventricularly)
Experiment: Morris water maze tests in Aβ injection model, Test Example 2
Type: in vivo, ddY mouse
Details: olmesartan medoxomil 1 mg/kg/day, hydralazine 30 mg/kg/day
Method: The therapeutic effect of olmesartan medoxomil in Aβ injection model and the dose dependency thereof were examined according to the following experimental schedule. [Experimental Schedule]: Prior to the experiment, 8-week old male ddY mice were administered olmesartan medoxomil (0.5 mg/kg/day, 1 mg/kg/day, 3 mg/kg/day or 6 mg/kg/day) or distilled water orally for four weeks (day −28 to −1). Then, Aβ 1-40 was administered to the mice intracerebroventricularly (day 0). […] Mice are released into the water, and the time it takes them to reach the platform is measured. […] The time it takes them to reach the platform is measured. • Probe test: The platform is removed, and mice are released and allowed to swim freely. […] The time they spent in that quadrant is measured. • Annnulus crossing: The number of times mice crossed the platform in the probe test is counted. […] The number of successive interceptions by the subject of the two adjoining beams on each bank is counted as locomotion score. • Long-term retention: On day 12 after the completion of the hidden platform test as a water maze test, mice are released into the water and the time it takes them to reach the platform is measured. • Working memory task: The platform is transferred and fixed at a new place. Mice are given four consecutive trials at intervals of as short as 20 seconds, and the time it takes them to reach the platform is measured. […]

CCCc1nc(C(C)(C)O)c(C(=O)OCc2oc(=O)oc2C)n1Cc1ccc(-c2ccccc2-c2nnn[nH]2)cc1 [olmesartan medoxomil, (5-methyl-2-oxo-1,3-dioxolen-4-yl)methyl 4-(1-hydroxy-1-methylethyl)-2-propyl-1-[4-[2-(tetrazol-5-yl)phenyl]phenyl]methyl-imidazole-5-carboxylate]
swimming speed: difference between groups: No significant difference
visible platform test: difference between groups: No significant difference
